Experimental findings from patent US5344780A, “Method for determining indole compounds associated with boar taint in pork as well as a sample container to be used in the method” (priority 1990, dated 1994) are described below.

The nature of the data set: HPLC-analysis of extracted lard without heating (comparison test). Also noted: species or system pig. The following applies: for Detection of skatole or indole: extraction without prior heating.

In the case of `c1ccc2[nH]ccc2c1` [Indole, indole], the “Detection of skatole or indole” value was “not possible to detect”.
Take `Cc1c[nH]c2ccccc12` [Skatole, skatole]: the “Detection of skatole or indole” value is “not possible to detect”. For the same compound, the “Concentration of skatole in extract from lard” value (extracted lard without heating, samples 1-5) is 0 ppb.
